This passage reports binding results from patent US20200031919A1 (SUZHOU KANOVA BIOPHARMACEUTICAL, published 2020).

Assay [1] concerns the target T1, cynomolgus IL-17F (cynomolgus, UniProt G7P4V0 31-163).
T1 construct: also called cynomolgus 17F
T1 sequence: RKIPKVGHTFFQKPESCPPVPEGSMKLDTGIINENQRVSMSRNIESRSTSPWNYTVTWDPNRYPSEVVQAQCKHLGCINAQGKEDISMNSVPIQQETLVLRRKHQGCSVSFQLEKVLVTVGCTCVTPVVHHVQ
In words: ELISA, cynomolgus IL-17F coated.

For assay [2], the target named is cynomolgus IL-17A (cynomolgus). In words: ELISA, cynomolgus IL-17A coated.

These are yes or no findings as the source states them, for the method shown. Some binding calls cover weakened binding; strength is not graded here.

B1: anti-IL17A/F antibody hIgG VH1-1/VL5 (antibody, V domains shown)
VH: QFQLVQSGAEVKKPGASVKVSCKASGYTFTDYNLNWVRQAPGKGLEWMGVIHPDYGTTSYNQKFKDRVTMTVDTSTSTVYMELSSLRSEDTAVYYCVRYDYGDAMDYWGQGTLVTVSS
VL: DIVMTQSPLSLSVTPGQPASISCRSSQSLVHSNGNTYLHWYLQKPGQPPQLLIYKVSNRFSGVPDRFSGSGSGTDFTLKISRVEAEDVGVYYCSQSTHVPLTFGQGTKLEIKR
notes: also called VH1-1/VL5 mAb; hIgGc VH1-1/VL5
Turning to B1, the binding entry in assay [1] and in assay [2] was “binds” in each case.
